Test results taken from PubChem BioAssay AID1159583 (ICCB-Longwood Screening Facility, Harvard Medical School, 2016).
The list shows a part of the results.

experiment: hypoxia reporter signal reduction in M. tuberculosis – fluorescence, absorbance growth readout, primary screen (AID 1159583); conditions: M. tuberculosis hypoxia-regulated fluorescent reporter, measured here: M. tuberculosis growth (absorbance), stronger effect = higher value, concentration not given here

SMILES	growth inhibition [%]
Cc1ccc2nc3c(c(C)c2c1)CC(C(Cl)Cl)S3 (stereo unspecified)	-2.2
Cc1cccc(C)c1OP(C)(N)=O (stereo unspecified)	-4.94
Cc1ccc(OP(=O)(Nc2ccc([N+](=O)[O-])cn2)Oc2ccc(C)cc2)cc1	1.65
CC(C)(C)c1ccc(OP(C)(=O)Nc2ccc(SC(F)(F)F)cc2)cc1 (stereo unspecified)	8.8
O=[N+]([O-])c1ccc(-c2cc([N+](=O)[O-])c(O)c([N+](=O)[O-])c2)cc1	1.51
COc1cc(C(=O)NCC2(N3CCOCC3)CCCCC2)ccc1OCC(C)C	9.77
O=[As](O)(c1ccc(O)cc1)c1ccccc1O	58
C[As](=O)(O)c1cccc(C(=O)O)c1	1.15
O=[N+]([O-])c1cc([N+](=O)[O-])c(Nc2cccnc2)c([N+](=O)[O-])c1	8.17
O=[N+]([O-])c1ccc(Nc2ccc(Oc3ccc([N+](=O)[O-])cc3[N+](=O)[O-])cc2)c([N+](=O)[O-])c1	-4.84
CP(=O)(Nc1ccccc1Br)Oc1ccccc1 (stereo unspecified)	-5.79
COc1ccccc1OP(C)(=O)Nc1ccccc1 (stereo unspecified)	5.91
Cc1cc(SC(NC=O)C(Cl)(Cl)Cl)ncn1 (stereo unspecified)	8.3
O=P(Nc1ccccn1)(c1cccc2ccccc12)c1cccc2ccccc12	5.48
CCOC(=O)Nc1cccc([As](=O)(O)O)c1	2.75
Cc1cc(SC(NC(=O)c2ccccc2)C(Cl)(Cl)Cl)nc(C(C)C)n1 (stereo unspecified)	5.33
COc1ccc(NC(=NP(=O)(N2CCOCC2)N2CCOCC2)N2CCOCC2)cc1	-4.94
CCCCOc1ccc(C(=O)NCC2(N3CCCCC3)CCCCC2)cc1OC	11.9

SMILES	growth inhibition [%]
CC1CCNP(=O)(N(CCCl)CCCl)O1 (stereo unspecified)	2.9
CCOC(=O)Nc1ccc([As](=O)(O)O)c(O)c1	55.2
CP(=O)(Nc1ccccn1)Oc1ccc(Cl)cc1 (stereo unspecified)	10.5
CCC(C)N(CC(C)C)C(=S)SC(NC(C)=O)C(Cl)(Cl)Cl (stereo unspecified)	6.93
O=[N+]([O-])c1cc([N+](=O)[O-])c(O)c([N+](=O)[O-])c1.c1ccc(Oc2ccncc2)cc1	-15.9
CCOC(=O)c1ccc(NP(C)(=O)Oc2ccc(OC)cc2)cc1 (stereo unspecified)	3.78
CCOC(=O)c1ccc(NC(=O)C(C)(CCl)SC)cc1 (stereo unspecified)	-5.95
O=C(OC1CN2CCC1CC2)c1cccc([N+](=O)[O-])c1 (stereo unspecified)	5.61
Cc1cc(C)cc(OP(C)(=O)Nc2ccc(SC(F)(F)F)cc2)c1 (stereo unspecified)	-1.32
O=C(Nc1ccncc1[N+](=O)[O-])c1ccc([N+](=O)[O-])cc1[N+](=O)[O-]	14.1
CP(=O)(NC(=O)Nc1ccccc1)Oc1ccccc1 (stereo unspecified)	3.33
O=C(COc1ccccc1)OC1CN2CCC1CC2 (stereo unspecified)	9.7
CCc1ccc(OP(C)(=O)N2CCN(c3ccc([N+](=O)[O-])cc3)CC2)cc1 (stereo unspecified)	4.49
CC1OP(=O)(Oc2ccccc2)C(O)C(O)C1N=[N+]=[N-] (stereo unspecified)	-7.09
CP(=O)(Oc1ccccc1)OC(c1ccccc1)C(F)(F)F (stereo unspecified)	6.17
COP1(=S)c2c(C)nn(CCC#N)c2N=C(c2ccc(F)cc2)N1C (stereo unspecified)	0.341
CP(=O)(Nc1ccc(SC(F)(F)F)cc1)Oc1ccc(Cl)cc1 (stereo unspecified)	2.58
Cc1cccc(C)c1OP(C)(=O)Nc1ccc(SC(F)(F)F)cc1 (stereo unspecified)	1.34
